Values from PubChem BioAssay AID1259254 (NCATS, 2017)
Here is an unselected part of about 59,000 reagents tested. Over the whole deposit, about 1,550 (2.6%) are marked active. 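G2 share is only a proxy for re-replication; each gene was hit by three separate siRNAs, and active genes were retested.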 A number with no mark means an inactive call. Reagents against one gene are numbered here. Further read-outs or replicates are left out here. Not given: the amount of reagent.

Assay: 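Genome-wide screen for genes that prevent DNA re-replication in cancer cells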 (primary screen)
Cells: human HCT116 colorectal cancer cells
Reagent: single siRNA against human genes
Duration: 3 days
Measured: 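Imaged Hoechst DNA stain sorts each cell into a cycle phase by DNA amount; per plate, G2 fraction set to 0% for non-targeting and 100% for GMNN siRNA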
Scale: G2 robust z-score and G2 cells, % of GMNN control: higher = more G2 cells, more excess DNA replication
Rule for the call: 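An siRNA counts as active if its G2 robust z-score lies at least 5 MADs above the screen median; here such calls match roughly 38% of GMNN control or more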

gene symbol | siRNA no. | G2 robust z-score | G2 cells, % of GMNN control
ANKRD31 | 1 | -0.439 | -0.124
ANKRD31 | 2 | -0.998 | -4.05
ANKRD31 | 3 | 3.83 | 29.9
STRA6 | 1 | 4.12 | 32
STRA6 | 2 | -0.664 | -1.7
STRA6 | 3 | -0.254 | 1.18
PDE12 | 1 | -0.0206 | 2.82
PDE12 | 2 | 7.43 (active) | 55.3
PDE12 | 3 | -0.0209 | 2.82
RPN1 | 1 | 0.0338 | 3.21
RPN1 | 2 | -0.317 | 0.74
RPN1 | 3 | 0.768 | 8.37
BMI1 | 1 | -0.854 | -3.04
BMI1 | 2 | 2.5 | 20.5
BMI1 | 3 | -0.48 | -0.41
CT47C1 | 1 | -0.0462 | 2.64
CT47C1 | 2 | -0.736 | -2.21
CT47C1 | 3 | 5.74 (active) | 43.4
SCGB2A2 | 1 | 2.18 | 18.3
SCGB2A2 | 2 | 1.51 | 13.6
SCGB2A2 | 3 | -0.109 | 2.2
CAMTA2 | 1 | 0.561 | 6.91
CAMTA2 | 2 | 1.29 | 12.1
CAMTA2 | 3 | 5.28 (active) | 40.1
MTFR1L | 1 | 1.13 | 10.9
MTFR1L | 2 | -0.0249 | 2.79
MTFR1L | 3 | -0.704 | -1.99
PLD1 | 1 | 0.0594 | 3.39
PLD1 | 2 | -1.16 | -5.22
PLD1 | 3 | -0.106 | 2.22
CASKIN1 | 1 | 1.26 | 11.8
CASKIN1 | 2 | 0.865 | 9.05
CASKIN1 | 3 | 2.69 | 21.9
KRTAP9-4 | 1 | 0.301 | 5.09
KRTAP9-4 | 2 | -0.924 | -3.53
KRTAP9-4 | 3 | 1.75 | 15.3
NPAS4 | 1 | 0.459 | 6.2
NPAS4 | 2 | 0.355 | 5.47
NPAS4 | 3 | 2.52 | 20.7

The list goes on, starting with the last 11 of the part before.
gene symbol | siRNA no. | G2 robust z-score | G2 cells, % of GMNN control
PLD1 | 2 | -1.16 | -5.22
PLD1 | 3 | -0.106 | 2.22
CASKIN1 | 1 | 1.26 | 11.8
CASKIN1 | 2 | 0.865 | 9.05
CASKIN1 | 3 | 2.69 | 21.9
KRTAP9-4 | 1 | 0.301 | 5.09
KRTAP9-4 | 2 | -0.924 | -3.53
KRTAP9-4 | 3 | 1.75 | 15.3
NPAS4 | 1 | 0.459 | 6.2
NPAS4 | 2 | 0.355 | 5.47
NPAS4 | 3 | 2.52 | 20.7
PDGFRL | 1 | -0.474 | -0.368
PDGFRL | 2 | -1.07 | -4.53
PDGFRL | 3 | -0.905 | -3.4
MYL12A | 1 | -1.02 | -4.22
MYL12A | 2 | -1.03 | -4.26
MYL12A | 3 | -0.514 | -0.651
TRIM62 | 1 | 1.9 | 16.3
TRIM62 | 2 | 0.0118 | 3.05
TRIM62 | 3 | -0.283 | 0.974
OR10T2 | 1 | -0.777 | -2.5
OR10T2 | 2 | -0.627 | -1.45
OR10T2 | 3 | 0.851 | 8.96
ZC3H12B | 1 | -0.486 | -0.449
ZC3H12B | 2 | -0.705 | -1.99
ZC3H12B | 3 | 0.103 | 3.69
P3H4 | 1 | 2.98 | 24
P3H4 | 2 | 6.46 (active) | 48.5
P3H4 | 3 | 0.0312 | 3.19
CTRB1 | 1 | -0.0896 | 2.34
CTRB1 | 2 | -0.357 | 0.457
CTRB1 | 3 | -1.04 | -4.35
KCTD21 | 1 | -0.589 | -1.18
KCTD21 | 2 | 0.274 | 4.9
KCTD21 | 3 | 0.0622 | 3.41
RTL8A | 1 | 0.701 | 7.9
RTL8A | 2 | 0.452 | 6.15
RTL8A | 3 | 1.74 | 15.2
UBXN8 | 1 | -0.241 | 1.27
UBXN8 | 2 | 0.564 | 6.94
UBXN8 | 3 | 1.23 | 11.7
CTNNA2 | 1 | 4.5 | 34.6
CTNNA2 | 2 | -0.0109 | 2.89
CTNNA2 | 3 | 1.58 | 14.1
FSTL3 | 1 | 0.259 | 4.79
FSTL3 | 2 | 0.833 | 8.83
FSTL3 | 3 | 5.25 (active) | 39.9
MYT1 | 1 | 0.283 | 4.96
MYT1 | 2 | -0.133 | 2.03
MYT1 | 3 | -0.739 | -2.23
SBDS | 1 | 2.08 | 17.6
SBDS | 2 | -0.108 | 2.21
SBDS | 3 | 4.99 | 38.1
CHMP2A | 1 | 2.54 | 20.8
CHMP2A | 2 | 4.34 | 33.5
CHMP2A | 3 | 4.13 | 32
ITPKA | 1 | 0.85 | 8.95
ITPKA | 2 | -1.4 | -6.9
ITPKA | 3 | -0.65 | -1.6
